Where a chain is given by its changes, count along the chain named. Results are given in words; binding and its absence hold for the method and conditions named. In cells and extracts the contact can be indirect. Some entries that bind do so weakly or less than the wild type. Sequences can lack the tags named with a protein.
Experiments:
Test in all cases: co-IP; GFP-nanotrap of GFP-SNX17 or its mutants from transiently transfected HEK293T cells, endogenous partners; lysis in 0.5% NP-40, 50 mM Tris pH 7.5 in ddH2O; quantitative western blot
GFP-SNX17(F462A) (human) = biological target: T1, GFP-SNX17(F462A) (human) (UniProt Q15036)
T1 sequence: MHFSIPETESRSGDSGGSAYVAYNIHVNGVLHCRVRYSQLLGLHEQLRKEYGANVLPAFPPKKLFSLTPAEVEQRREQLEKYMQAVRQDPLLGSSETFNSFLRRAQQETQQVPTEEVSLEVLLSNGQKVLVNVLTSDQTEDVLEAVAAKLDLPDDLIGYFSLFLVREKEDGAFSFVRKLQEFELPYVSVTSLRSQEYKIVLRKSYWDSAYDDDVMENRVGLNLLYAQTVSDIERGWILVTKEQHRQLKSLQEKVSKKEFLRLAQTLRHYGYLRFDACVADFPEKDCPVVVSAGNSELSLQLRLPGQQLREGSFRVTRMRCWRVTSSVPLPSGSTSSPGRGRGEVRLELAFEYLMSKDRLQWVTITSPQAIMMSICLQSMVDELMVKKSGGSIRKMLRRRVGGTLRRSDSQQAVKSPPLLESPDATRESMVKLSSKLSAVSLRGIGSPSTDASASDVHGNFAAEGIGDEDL

The chains behind the UniProt entries cited, without tags or fusion partners. Residues count along the entry.
UniProt Q07954, residues 20-4544: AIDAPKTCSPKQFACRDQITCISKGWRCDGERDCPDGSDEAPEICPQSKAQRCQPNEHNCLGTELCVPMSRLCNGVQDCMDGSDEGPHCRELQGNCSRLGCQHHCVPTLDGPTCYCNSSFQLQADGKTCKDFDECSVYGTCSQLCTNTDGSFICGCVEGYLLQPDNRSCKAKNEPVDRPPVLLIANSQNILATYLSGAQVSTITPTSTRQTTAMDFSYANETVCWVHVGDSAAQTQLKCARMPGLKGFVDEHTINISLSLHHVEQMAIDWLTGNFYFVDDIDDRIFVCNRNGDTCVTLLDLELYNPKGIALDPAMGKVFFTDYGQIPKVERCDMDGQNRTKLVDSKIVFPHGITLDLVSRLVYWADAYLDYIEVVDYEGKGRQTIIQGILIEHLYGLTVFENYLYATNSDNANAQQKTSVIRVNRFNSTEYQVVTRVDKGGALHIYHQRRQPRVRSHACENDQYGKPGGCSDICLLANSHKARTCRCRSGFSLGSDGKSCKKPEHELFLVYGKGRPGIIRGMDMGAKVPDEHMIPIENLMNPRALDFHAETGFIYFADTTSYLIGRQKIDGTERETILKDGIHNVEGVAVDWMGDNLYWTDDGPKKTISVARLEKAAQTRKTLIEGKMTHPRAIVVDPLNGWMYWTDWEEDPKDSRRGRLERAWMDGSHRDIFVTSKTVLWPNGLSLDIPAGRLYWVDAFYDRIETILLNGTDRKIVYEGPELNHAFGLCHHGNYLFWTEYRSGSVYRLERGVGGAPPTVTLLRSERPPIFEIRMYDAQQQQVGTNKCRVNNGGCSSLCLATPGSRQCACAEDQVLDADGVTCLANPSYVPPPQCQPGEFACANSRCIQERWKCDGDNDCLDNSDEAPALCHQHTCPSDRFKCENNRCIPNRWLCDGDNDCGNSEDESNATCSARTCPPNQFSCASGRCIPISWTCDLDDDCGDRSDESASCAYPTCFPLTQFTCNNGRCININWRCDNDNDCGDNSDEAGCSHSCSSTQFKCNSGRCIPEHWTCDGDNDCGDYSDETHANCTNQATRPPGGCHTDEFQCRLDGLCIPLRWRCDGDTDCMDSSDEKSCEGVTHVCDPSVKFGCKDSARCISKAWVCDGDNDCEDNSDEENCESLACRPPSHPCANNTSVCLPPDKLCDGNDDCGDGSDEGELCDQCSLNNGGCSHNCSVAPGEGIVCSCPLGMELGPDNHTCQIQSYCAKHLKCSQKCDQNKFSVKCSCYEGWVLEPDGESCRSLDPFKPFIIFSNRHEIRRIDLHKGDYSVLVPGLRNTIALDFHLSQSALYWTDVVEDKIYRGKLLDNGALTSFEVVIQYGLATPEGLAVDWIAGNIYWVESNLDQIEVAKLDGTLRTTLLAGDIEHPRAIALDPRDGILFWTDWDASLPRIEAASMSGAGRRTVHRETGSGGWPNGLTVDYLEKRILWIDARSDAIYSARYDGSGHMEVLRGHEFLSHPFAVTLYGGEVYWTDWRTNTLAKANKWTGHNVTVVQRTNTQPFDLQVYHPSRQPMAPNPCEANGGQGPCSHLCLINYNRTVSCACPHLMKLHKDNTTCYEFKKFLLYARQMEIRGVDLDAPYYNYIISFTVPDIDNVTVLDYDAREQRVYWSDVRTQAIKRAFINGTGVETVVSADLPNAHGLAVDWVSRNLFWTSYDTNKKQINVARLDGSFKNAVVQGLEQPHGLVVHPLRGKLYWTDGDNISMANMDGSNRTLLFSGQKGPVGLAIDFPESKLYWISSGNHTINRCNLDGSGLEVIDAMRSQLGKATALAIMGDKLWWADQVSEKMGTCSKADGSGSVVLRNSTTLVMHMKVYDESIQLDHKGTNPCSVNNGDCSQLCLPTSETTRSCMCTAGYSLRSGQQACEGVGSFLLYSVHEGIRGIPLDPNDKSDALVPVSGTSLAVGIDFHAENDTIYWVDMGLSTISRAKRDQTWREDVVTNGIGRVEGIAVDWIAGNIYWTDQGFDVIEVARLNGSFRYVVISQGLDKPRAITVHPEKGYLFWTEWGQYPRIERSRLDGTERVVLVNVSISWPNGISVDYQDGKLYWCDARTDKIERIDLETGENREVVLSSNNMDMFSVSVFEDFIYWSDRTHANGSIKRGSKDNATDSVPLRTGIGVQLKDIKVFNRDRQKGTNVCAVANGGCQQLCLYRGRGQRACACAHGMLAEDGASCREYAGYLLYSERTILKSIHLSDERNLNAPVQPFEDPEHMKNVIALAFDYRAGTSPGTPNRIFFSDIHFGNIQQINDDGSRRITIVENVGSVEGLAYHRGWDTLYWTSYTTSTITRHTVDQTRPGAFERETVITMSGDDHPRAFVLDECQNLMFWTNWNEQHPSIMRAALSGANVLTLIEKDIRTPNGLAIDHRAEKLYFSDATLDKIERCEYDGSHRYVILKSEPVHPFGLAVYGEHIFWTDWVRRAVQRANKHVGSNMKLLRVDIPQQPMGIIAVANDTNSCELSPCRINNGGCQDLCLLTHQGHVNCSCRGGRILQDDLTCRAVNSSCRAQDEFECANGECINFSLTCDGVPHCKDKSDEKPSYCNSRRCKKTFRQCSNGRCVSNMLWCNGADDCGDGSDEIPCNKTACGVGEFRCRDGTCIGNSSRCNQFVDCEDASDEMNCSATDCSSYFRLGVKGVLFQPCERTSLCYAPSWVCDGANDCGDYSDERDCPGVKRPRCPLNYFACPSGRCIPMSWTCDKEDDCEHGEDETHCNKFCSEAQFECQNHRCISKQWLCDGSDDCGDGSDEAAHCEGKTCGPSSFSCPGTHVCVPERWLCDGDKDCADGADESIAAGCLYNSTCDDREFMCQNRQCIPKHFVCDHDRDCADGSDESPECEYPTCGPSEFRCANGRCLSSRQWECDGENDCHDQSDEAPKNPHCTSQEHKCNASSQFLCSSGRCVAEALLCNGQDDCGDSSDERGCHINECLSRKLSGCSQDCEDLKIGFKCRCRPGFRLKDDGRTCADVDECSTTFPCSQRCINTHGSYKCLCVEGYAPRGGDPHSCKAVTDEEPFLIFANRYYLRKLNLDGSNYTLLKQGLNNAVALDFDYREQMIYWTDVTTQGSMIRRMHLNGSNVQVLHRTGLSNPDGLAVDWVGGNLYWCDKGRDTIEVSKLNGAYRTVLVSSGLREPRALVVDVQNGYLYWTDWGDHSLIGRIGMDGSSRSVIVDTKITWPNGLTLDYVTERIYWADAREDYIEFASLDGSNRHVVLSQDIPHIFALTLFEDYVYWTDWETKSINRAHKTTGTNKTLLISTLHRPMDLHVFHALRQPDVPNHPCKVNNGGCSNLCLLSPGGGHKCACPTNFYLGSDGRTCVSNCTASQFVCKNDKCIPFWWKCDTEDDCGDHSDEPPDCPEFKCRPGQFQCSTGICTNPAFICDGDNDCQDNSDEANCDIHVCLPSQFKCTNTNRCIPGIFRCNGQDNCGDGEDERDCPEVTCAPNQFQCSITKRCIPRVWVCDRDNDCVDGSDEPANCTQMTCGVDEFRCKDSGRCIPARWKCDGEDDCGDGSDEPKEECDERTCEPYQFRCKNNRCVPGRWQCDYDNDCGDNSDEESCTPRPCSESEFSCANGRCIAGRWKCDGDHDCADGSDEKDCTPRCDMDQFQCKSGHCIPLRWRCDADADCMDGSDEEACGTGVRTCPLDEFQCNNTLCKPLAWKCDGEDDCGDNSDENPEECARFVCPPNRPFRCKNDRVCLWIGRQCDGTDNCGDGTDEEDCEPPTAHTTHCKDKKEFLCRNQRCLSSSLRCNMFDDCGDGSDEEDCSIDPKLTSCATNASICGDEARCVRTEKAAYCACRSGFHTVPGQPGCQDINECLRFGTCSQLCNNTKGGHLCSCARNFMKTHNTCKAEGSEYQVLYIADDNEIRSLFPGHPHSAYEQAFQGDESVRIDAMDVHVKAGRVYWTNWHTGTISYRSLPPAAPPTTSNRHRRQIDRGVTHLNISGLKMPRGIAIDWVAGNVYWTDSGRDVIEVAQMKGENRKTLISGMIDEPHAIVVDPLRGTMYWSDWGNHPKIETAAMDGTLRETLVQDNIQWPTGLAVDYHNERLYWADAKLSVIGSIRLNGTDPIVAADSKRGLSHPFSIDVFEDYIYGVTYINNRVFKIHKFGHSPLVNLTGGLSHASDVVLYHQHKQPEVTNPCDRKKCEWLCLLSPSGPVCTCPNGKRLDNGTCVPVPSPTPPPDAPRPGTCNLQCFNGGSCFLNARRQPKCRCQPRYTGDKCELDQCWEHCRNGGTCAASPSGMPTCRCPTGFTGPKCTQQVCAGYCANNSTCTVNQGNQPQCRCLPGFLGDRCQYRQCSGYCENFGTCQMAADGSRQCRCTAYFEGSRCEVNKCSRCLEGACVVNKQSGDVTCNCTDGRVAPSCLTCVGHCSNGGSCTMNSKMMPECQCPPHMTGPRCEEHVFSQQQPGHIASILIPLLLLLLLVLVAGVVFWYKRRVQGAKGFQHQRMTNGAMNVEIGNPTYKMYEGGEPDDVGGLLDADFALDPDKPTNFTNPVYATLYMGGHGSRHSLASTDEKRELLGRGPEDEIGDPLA
UniProt P05067, residues 18-770: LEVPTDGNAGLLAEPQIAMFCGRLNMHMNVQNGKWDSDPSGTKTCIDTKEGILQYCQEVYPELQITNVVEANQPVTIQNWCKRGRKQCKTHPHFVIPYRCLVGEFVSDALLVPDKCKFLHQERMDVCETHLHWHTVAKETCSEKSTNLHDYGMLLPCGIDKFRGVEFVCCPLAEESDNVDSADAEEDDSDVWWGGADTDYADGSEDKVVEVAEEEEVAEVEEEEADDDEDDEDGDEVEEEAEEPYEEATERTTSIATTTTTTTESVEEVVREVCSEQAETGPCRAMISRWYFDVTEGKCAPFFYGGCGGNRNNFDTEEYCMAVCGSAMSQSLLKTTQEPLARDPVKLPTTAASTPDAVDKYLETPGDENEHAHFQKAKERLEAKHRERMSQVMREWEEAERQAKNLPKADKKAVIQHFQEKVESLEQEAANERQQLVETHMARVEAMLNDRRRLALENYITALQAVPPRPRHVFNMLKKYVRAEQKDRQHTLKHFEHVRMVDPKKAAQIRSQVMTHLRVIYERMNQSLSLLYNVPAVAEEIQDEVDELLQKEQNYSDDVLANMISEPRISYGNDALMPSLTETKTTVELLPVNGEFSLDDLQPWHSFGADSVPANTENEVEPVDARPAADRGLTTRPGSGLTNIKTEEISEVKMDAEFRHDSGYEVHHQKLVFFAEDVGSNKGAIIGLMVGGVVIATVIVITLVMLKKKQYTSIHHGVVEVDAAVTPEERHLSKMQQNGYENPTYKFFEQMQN

GFP-SNX17(F462E) (human) = biological target: T2, GFP-SNX17(F462E) (human) (UniProt Q15036)
T2 sequence: T1 sequence with A462E

[1] = biological target: T3, GFP-SNX17(NFAF-AAAA) (human) (UniProt Q15036)
T3 sequence: T1 sequence with N459A, F460A

[2] = biological target: T4, GFP-tagged SNX17(M384E) (human) (UniProt Q15036)
T4 sequence: T1 sequence with M384E, A462F

[3] = biological target: T5, GFP-tagged SNX17(V380D) (human) (UniProt Q15036)
T5 sequence: T1 sequence with V380D, A462F

[4] = biological target: T6, GFP-tagged SNX17(W321A) (human) (UniProt Q15036)
T6 sequence: T1 sequence with W321A, A462F

Measured: binding

LRP1, endogenous (from UniProt Q07954 20-4544) (receptor)
binds: all assays above

APP, endogenous (from UniProt P05067 18-770)
binds: GFP-SNX17(F462A) (human) | GFP-SNX17(F462E) (human) | [1]

LRP2, endogenous (from UniProt P98164 26-4655) (receptor)
binds: GFP-SNX17(F462A) (human) | GFP-SNX17(F462E) (human) | [1]

From PMC11339278 (2024)
